# Assay results reported in ChEMBL document CHEMBL3596144, “New Indole Tubulin Assembly Inhibitors Cause Stable Arrest of Mitotic Progression, Enhanced Stimulation of Natural Killer Cell Cytotoxic Activity, and Repression of Hedgehog-Dependent Cancer” (J Med Chem, 2015).
# Assays:
# [1] = Cytotoxicity against human MESSA cells assessed as growth inhibition after 72 hrs by CellTiter-Glo assay; assay type: functional, cell-based; conditions: MES-SA
# [2] = Cytotoxicity against human MESSA/DX5 cells assessed as growth inhibition after 72 hrs by CellTiter-Glo assay; assay type: functional, cell-based; conditions: MES-SA/Dx5, 72 h
structure (smiles),measurement,setting,value
COc1cc2c(c(OC)c1OC)-c1ccc(OC)c(=O)cc1[C@@H](NC(C)=O)CC2 [COLCHICINE],IC50,[1],11 nM
same,IC50,[2],329 nM
